One series deals with STAT3 (UniProt P40763). Kind of series: EMSA. The note with it: variant of STAT3 decoy (hSIE).
In series [1] the target is STAT3 (endogenous, UM-22B HNSCC cells) (UniProt P40763). Kind of series: activity in cells. The note with it: protein in cells.
For series [2], the target named is pSTAT3 (tyrosine-phosphorylated STAT3) (UniProt P40763). The series is described as follows: SPR. The note with it: LNA x3 at 5' end of sense and 3' end of antisense; LNA x2 at 3' end of sense and 5' end of antisense; C-18 spacer linking strands; decoy with 10 LNA did not bind STAT3; tested 5-80 uM; purified recombinant protein; synthetic backbone; variant of parent STAT3 decoy (PTO).

By UniProt entry, the sequences of proteins in these tests, tags left out.
UniProt P40763, whole entry: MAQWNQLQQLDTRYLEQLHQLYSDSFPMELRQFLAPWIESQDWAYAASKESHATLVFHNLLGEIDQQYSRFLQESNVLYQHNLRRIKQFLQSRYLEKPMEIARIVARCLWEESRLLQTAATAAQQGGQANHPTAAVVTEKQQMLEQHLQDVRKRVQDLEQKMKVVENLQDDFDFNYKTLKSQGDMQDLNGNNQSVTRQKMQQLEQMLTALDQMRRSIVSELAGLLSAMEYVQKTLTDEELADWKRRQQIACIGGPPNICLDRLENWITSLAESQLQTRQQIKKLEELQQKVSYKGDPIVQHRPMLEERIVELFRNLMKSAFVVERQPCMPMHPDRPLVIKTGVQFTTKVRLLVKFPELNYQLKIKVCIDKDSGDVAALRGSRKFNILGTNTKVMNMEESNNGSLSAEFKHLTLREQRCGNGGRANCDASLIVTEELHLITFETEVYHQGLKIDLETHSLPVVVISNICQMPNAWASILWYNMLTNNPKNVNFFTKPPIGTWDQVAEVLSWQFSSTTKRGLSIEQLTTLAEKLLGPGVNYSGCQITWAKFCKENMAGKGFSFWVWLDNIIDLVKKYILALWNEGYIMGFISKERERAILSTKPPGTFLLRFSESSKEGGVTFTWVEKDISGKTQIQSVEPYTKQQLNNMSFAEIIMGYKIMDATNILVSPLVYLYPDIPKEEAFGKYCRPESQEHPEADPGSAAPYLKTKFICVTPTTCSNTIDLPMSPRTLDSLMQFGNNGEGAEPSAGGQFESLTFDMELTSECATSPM

For series [3] the target is unchanged. The series is described as follows: EMSA. The note with it: one LNA at 5' end of one strand and one at 3' end of the other; C-18 spacer linking strands; bound as well as parent decoy; 6% PAGE-TBE, SYBR Gold; purified recombinant protein; synthetic backbone; variant of parent STAT3 decoy (PTO). Background: In EMSA bound probe runs differently from free probe, usually more slowly.

We go through 14 sequences from patent US20120288536.

For some assays here: A negative result means that nothing was seen under these conditions. For some assays here: The comparison behind a weaker result is the experiment's own reference, which may not be listed here. For some assays here: For at least one entry, the source does not settle the construct or the ends of the probe.

In the case of “CATTTCCCTTCAATC (double strand) [Mutant 8]”, the binding result in the series with STAT3 is “binds more weakly”.
As for “CATTTCCCGTAAATC (double strand) [parent STAT3 decoy (PTO)]”, the “activity on this sequence” value in series [1] (PS first three and last three bases of both strands, duplex inhibits hSIE luciferase reporter at 12.6 nM, single strands do not suffice, variant of STAT3 decoy (hSIE)) was “active”.
On to “CAGTTCACGTCAATC (double strand) [Mutant 9]”, for which, in the series with STAT3, the binding result was “binds more weakly”.
On to “CAGTTCCCGTAAATC (double strand) [Mutant 1]”, for which the binding result with STAT3 was “binds more weakly”.
Consider “CAGTTCCCGTCAATC (double strand) [Mutant 6]”, for which, in the series with STAT3, the binding result is “binds more weakly”.
Regarding “CATTTCCCGTAAATC (double strand) [LNA decoy]”, the binding result in series [2] is given as “no binding”.
With “CATTTCACGTAAATC (double strand) [Mutant 2]”, the binding result with STAT3 is given as “binds more weakly”.
For CAGTTCCCTTAAATC (double strand) [SIE], the binding result in the series with STAT3 is listed as “binds more weakly”.
On to “CATTTCACGTCAATC (double strand) [Mutant 7]”, for which the binding result in the series with STAT3 was “binds more weakly”.
On the same count and under the same terms, as for “CATTTCCCGTCAATC (double strand) [Mutant 4]”, the entry is “binds more weakly”.
The same measure, in the same setting: as for “CAGTTCCCTTCAATC (double strand) [Mutant 10]”, the entry is “binds more weakly”.
“CATTTCCCGTAAATCGAAAGATTTACGGGAAATG [DH4S]”: the “activity on this sequence” value in series [1] (PS x3 at 5' end of one strand and 3' end of the other, downmodulation of hSIE reporter comparable to parent decoy, 12.6 nM, folded or branched DNA, variant of parent STAT3 decoy (PTO)) is “active”.
Regarding CATTTCCCGTAAATC (double strand) [LNA-1], the binding result in series [3] is on record as “binds”.
Turning to “CAGTTCACGTAAATC (double strand) [Mutant 5]”, in the series with STAT3, the binding result was “binds more weakly”.
